Measured values taken from paper PMC11393453, “Phosphorylation of tau at a single residue inhibits binding to the E3 ubiquitin ligase, CHIP” (Nature Communications, 2024).

System: MAPT mRNA
Test: qPCR of MAPT mRNA
Format: cell-based
Settings: Fig 3H

tau: full length (FL) 0N4R splice isoform of tau, unmodified; recombinant or expressed in cells
MAPT mRNA 2^-ddCt (replicate 1): 1 | MAPT mRNA 2^-ddCt (replicate 2): 1.171 | MAPT mRNA normalized to FL tau (replicate 2): 93.4819 | MAPT mRNA 2^-ddCt (replicate 3): 0.9257 | MAPT mRNA normalized to FL tau (replicate 3): 99.0612
